For 64 molecules, AC50 results are on record in PubChem BioAssay AID493014 (National Center for Advancing Translational Sciences (NCATS), 2011).

As usually defined, the AC50 is the midpoint of the concentration-response curve, whichever way the signal moves.

The nature of the assay: qHTS Assay to Find Inhibitors of Chronic Active B-Cell Receptor Signaling. As to conditions: ABC-DLBCL IkBa-CBG/CBR reporter, luminescence ratio (green luciferase fused to IkBa over red control in TMD8 lymphoma cells), 4 h. Put shortly:
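Compounds up to 46 uM were incubated four hours with TMD8 cells whose green CBG68 luciferase is fused to IkappaBalpha; red CBR luminescence normalised the signal, and concentration-effect curves were fitted to fusion, red and ratio data.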
For orientation: In qHTS, concentration-response curves come from the screen itself.

The mark [1] stands for this setting: measured here: CBR red luminescence, cell number.
The mark [2] stands for this setting: measured here: IkBa-CBG green luminescence.

Some of the results follow. Shown are side measurements of this screen, not its main read-out; they come without a call. The list favours compounds with an active or inconclusive main result. The note in brackets gives the kind of curve behind each potency; many fits are weak.

Take `CCOC(=O)CC(NC(=O)Cn1nnc(-c2ccccc2Cl)n1)c1ccc(OC)cc1` (centres undefined): the AC50 under setting [1] was 35.5 µM [rising, single point].
Still for that read-out and setting: to `Cc1ccc2nc(SCCC(=O)O)cc(C)c2c1` belongs 29.1 µM [falling, single point]; to `CC1CCCCC1NC(=O)CN(C)S(=O)(=O)c1cccc2cccnc12` (centres undefined), 1.58 µM [rising, partial curve, poor fit]; to `O=C(NNC(=S)Nc1ccccc1Cl)c1ccncc1`, 35.5 µM [falling, single point].
For `COc1ccc(/C=N/NC(=O)c2cccnc2)cc1Cn1nc([N+](=O)[O-])c(Br)c1C`, the AC50 is 12.6 µM [falling, partial curve, poor fit] under setting [1] and 20 µM [falling, partial curve, poor fit] under setting [2].
As to `Oc1ccc(/C=N/Nc2nc(-c3ccc(Cl)cc3)cc(C(F)(F)F)n2)cc1`, the AC50 under setting [1] was 10.3 µM [falling, partial curve] and the half-maximal activity concentration (AC50) under setting [2] is 18.4 µM [rising, single point].
`Cc1ccc(-c2nc(S(=O)(=O)c3ccc(C)cc3)c(SCC(N)=O)o2)cc1`: the AC50 under setting [1] was 35.5 µM [falling, single point].
For the molecule `COc1ccc(/C=N/NC(=S)Nc2cccc(C(=O)O)c2)cc1OC`, the half-maximal activity concentration (AC50) under setting [1] is 18.4 µM [falling, partial curve].
Still for that read-out and setting: the value for `C=CCOc1ccc(CNc2nccs2)cc1` was 3.66 µM [rising, partial curve, poor fit]; that for `Cc1c(N2C(=O)/C(=C\c3cccc4ccccc34)SC2=S)c(=O)n(-c2ccccc2)n1C` was 6.51 µM [falling, single point].
Same read-out and setting: the value for `COc1cccc(CN(C)Cc2cc(=O)oc3c(C)c(C)ccc23)c1` was 10 µM [falling, single point].
`CCOc1cc(NC(=O)CCl)c(OCC)cc1NC(=O)CCl`: the AC50 under setting [2] was 11.2 µM [falling, partial curve].
As to `Cc1csc(C(C)NC(=O)c2ccc(OC3CCN(CCc4ccccc4)CC3)cc2)n1` (centres undefined), the AC50 under setting [1] is 35.5 µM [falling, partial curve, poor fit].
`COCCCNc1nc2ccccc2nc1NS(=O)(=O)c1ccc(C)cc1`: the AC50 under setting [1] is 20 µM [falling, partial curve].
Still for that read-out and setting: to `CCOC(=O)C(=CNc1nc(-c2ccc3ccccc3c2)cs1)C(=O)OCC` belongs 3.55 µM [rising, single point].
`COc1cc2c(cc1OC)CN(c1ccc(C(N)=O)cc1[N+](=O)[O-])CC2`: the half-maximal activity concentration (AC50) runs as follows: under setting [1], 12.6 µM [rising, partial curve, poor fit]; under setting [2], 14.1 µM [falling, partial curve, poor fit].
For `Cc1ccc2nc(Nc3ccc(C)c(Cl)c3)c3nncn3c2c1`, under setting [1], the AC50 is 0.891 µM [rising, full curve, poor fit].
Still for that read-out and setting: to `CCN(CC)C(=O)Cn1cc(C(=O)C(=O)NCC2COc3ccccc3O2)c2ccccc21` (centres undefined) belongs 2.51 µM [falling, full curve].
In the case of `Cc1cccc(C(=O)Nc2cc(NC(=O)c3cccs3)ccc2C)c1`, the AC50 under setting [2] was 11.2 µM [falling, partial curve, poor fit].
Take `CCN(CCCNC(=O)CCNC(=O)Cn1ccc2ccccc2c1=O)c1ccccc1`: the AC50 under setting [1] is 0.92 µM [rising, full curve, poor fit].
On the same count and under the same terms, the value for `C1=C(c2ccco2)N2CCN=C2S1` was 0.794 µM [rising, partial curve, poor fit]; that for `CCC(CC)C1C(C#N)=C(N)Oc2n[nH]c(C)c21` (centres undefined) was 5.8 µM [falling, partial curve].
Same read-out and setting: the value for `CCCCCCSc1ccc(-c2nc3ccc(Cl)cn3c2NC2CCCCC2)cc1` was 18.4 µM [falling, single point].
Take `COc1ccc2cc(-c3ccsc3)ncc2c1`: the AC50 under setting [1] was 20.6 µM [falling, single point].
On the same count and under the same terms, to `Cc1[nH]c2ccc(C(=O)O)cc2c1C` belongs 29.1 µM [falling, single point]; to `O=C(N/N=C/c1cn[nH]c1-c1ccc(Cl)cc1)c1ccc([N+](=O)[O-])cc1`, 35.5 µM [falling, single point]; to `c1ccc(CN2CCC(N=C3NN=C(c4ccc5c(c4)OCCO5)CS3)CC2)cc1`, 17.8 µM [falling, single point].
Same read-out and setting: to `S=C(NCC1CCCO1)c1ccc(Br)cc1` (centres undefined) belongs 28.2 µM [rising, single point].
Regarding `COc1ccc(NC(=O)N2CCn3c2nc2ccccc23)cc1`, the AC50 under setting [1] was 3.16 µM [falling, partial curve].
As to `CCOC(=O)C1(Cc2ccccc2)CCN(CC2CC=CCC2)CC1` (centres undefined), under setting [1], the AC50 is 35.5 µM [falling, single point].
The same measure, in the same setting: to `O=S1(=O)CCC(NC(=S)Nc2ccc3ccccc3c2)C1` (centres undefined) belongs 0.562 µM [rising, full curve, poor fit].
Still for that read-out and setting: to `O=C1/C(=C/c2cccc(Br)c2)SC(=S)N1CCC(=O)N(CCO)c1ccccc1` belongs 25.1 µM [falling, single point]; to `COc1ccc2cc(-c3ccn[nH]3)ccc2c1`, 6.31 µM [falling, single point].
On the same count and under the same terms, the value for `O=C(CSc1nc2ccccc2c(=O)n1-c1ccccc1F)NC1CCS(=O)(=O)C1` (centres undefined) was 5.8 µM [rising, full curve, poor fit]; that for `Cc1cccc(-c2noc(CSc3ccccc3)n2)c1` was 1.12 µM [rising, partial curve].
Turning to `COc1ccc(/C=C2\SC(=S)N(CCC(=O)NCCc3ccc(O)cc3)C2=O)cc1`, the AC50 under setting [1] was 3.55 µM [falling, full curve].
On the same count and under the same terms, the value for `Cc1ccc2cc3c(N)c4c(C)ccc(C)c4nc3nc2c1` was 4.47 µM [falling, partial curve]; that for `CC(C)(C)c1ccc(NC(=O)CC2(C(F)(F)F)OCCO2)cc1` was 0.794 µM [rising, partial curve, poor fit].
The same measure, in the same setting: to `C[C@@H]1CN([C@H](C)CO)C(=O)c2cc(NC(=O)c3ccncc3)ccc2O[C@@H]1CN(C)C(=O)Nc1ccccc1` belongs 0.58 µM [rising, full curve].
Turning to `Cc1cc(NC(=O)CSc2nnc(-c3ccccc3)o2)no1`, the AC50 by setting is: under setting [1], 35.5 µM [falling, single point]; under setting [2], 35.5 µM [falling, single point].
`Cc1cc(NC(=O)CCN2C(=O)/C(=C\c3ccccc3Cl)SC2=S)no1`: the AC50 under setting [1] is 0.447 µM [falling, full curve, poor fit].
On the same count and under the same terms, the value for `CC(=O)Nc1ccc(CN2CCC(Oc3ccc(C(=O)N4CCCC4)cc3)CC2)cc1` was 35.5 µM [rising, single point].
Same read-out and setting: the value for `CCN1CCN(Cc2ccc(NC(=O)c3ccc(C)c(/C=C/c4cnc(Nc5cc(N6CCNCC6)nc(C)n5)cn4)c3)cc2C(F)(F)F)CC1` was 11.2 µM [falling, partial curve]; that for `c1ccc(NNC2=NCCS2)cc1` was 10 µM [rising, partial curve, poor fit].
On the same count and under the same terms, to `CCCCCCN1Cc2ccccc2C1` belongs 11.2 µM [rising, partial curve].
On to `Cn1c(SCC(=O)c2ccccc2)nnc1-c1ccc(O)cc1`, for which the AC50 is 29.1 µM [falling, single point] under setting [1] and 32.6 µM [rising, partial curve, poor fit] under setting [2].
On to `O=C(NCc1ccc2c(c1)OCO2)c1sccc1Br`, for which the AC50 under setting [1] was 3.16 µM [falling, single point].
Still for that read-out and setting: the value for `Cc1ccc(Cl)c(NC(=O)CN(C)CC(=O)Nc2ccc(F)c(F)c2F)c1Cl` was 2.51 µM [rising, partial curve, poor fit]; that for `CCc1ccc(CNC(=O)C2CCCN(c3nnc(C)c4c(C)n(-c5ccccc5)nc34)C2)cc1` (centres undefined) was 14.1 µM [falling, single point]; that for `Oc1ccc(/C=N/n2c(C3CCCCC3)n[nH]c2=S)c(O)c1` was 35.5 µM [rising, single point].
On the same count and under the same terms, the value for `C/C(=N\Nc1nc(C)cc(-c2ccccc2)n1)c1cccc(N)c1` was 12.6 µM [falling, partial curve].
Still for that read-out and setting: the value for `COc1ccc(Nc2ncnc3ccc(Br)cc23)c(OC)c1` was 4.47 µM [falling, partial curve, poor fit].
Take `Cc1ccc(C(=O)N/N=C/c2nc3ccccc3n2C)cc1`: the AC50 under setting [1] was 1 µM [rising, full curve].
On the same count and under the same terms, to `COc1ccccc1NC(=O)c1cc(Br)ccc1Cl` belongs 22.4 µM [rising, single point]; to `CN(c1ccccc1)c1nc(N)c([N+](=O)[O-])c(N2CCCC2)n1`, 35.5 µM [rising, single point].
The same measure, in the same setting: the value for `COc1ccc(N/C=C(\C#N)c2ccc(OCCCF)cc2)cc1` was 6.51 µM [falling, single point]; that for `CC(C)(C)NC(=O)COC(=O)/C=C/c1ccccc1[N+](=O)[O-]` was 16.4 µM [rising, single point]; that for `CN(C)c1nc(N)nc(CSc2n[nH]c(-c3ccccc3)n2)n1` was 2.59 µM [rising, partial curve, poor fit].
On the same count and under the same terms, to `N#Cc1nc(COc2ccc(Cl)cc2)oc1N1CCCC1` belongs 17.8 µM [rising, single point]; to `CN(CC(=O)Nc1n[nH]c(=S)s1)S(=O)(=O)c1cccc2cccnc12`, 31.6 µM [rising, single point]; to `Cc1cc(NCCCn2ccnc2)n2ncc(-c3ccccc3)c2n1`, 15.8 µM [falling, single point].
For `C(=N\Nc1nc(Nc2ccccc2)nc(N2CCCCC2)n1)/c1ccco1`, the AC50 under setting [1] is 35.5 µM [falling, single point].
On the same count and under the same terms, the value for `Cc1ccc(-n2c(-c3ccc(Br)cc3)c[n+]3c2CCc2ccc4cccnc4c2-3)cc1` was 15.8 µM [falling, single point].
On the same count and under the same terms, to `O=C(Nc1cccc2ccccc12)c1onc2c1CCCC2` belongs 0.058 µM [falling, full curve, poor fit].
